The list is a part of this screen's results and no random one: it gathers tests that were run many times, whatever their T/C, doses with no T/C, and many T/C values between a quarter and a half above the control. Further doses and runs are listed elsewhere. T/C: endpoint of the treated group in % of that of the vehicle group. Some entries give survivors of the animals treated and no T/C: the source holds a T/C of zero for them, seemingly a mark for toxic or unscored doses. Some doses without a T/C left all or most animals alive at the check, yet need not have been tolerated: the source hardly ever lists a survival T/C far under the control, and the zero likely stands for such cases as well. Survivors were counted at the toxicity check, usually on the fifth day, unless a day is given; later deaths do not show. Schedules are NCI's codes, read here as Q, the interval in days (D) or hours (H), X, the number of doses. Some doses were run more than once; the results are listed from low to high. Where survival is the endpoint, this PubChem deposit counts one and a half times the control or more as active, and values a quarter to a half above the control carry no call in these data; other NCI protocols may use other cut-offs.
Test system: BDF1 mice, B16 melanoma ip, median survival T/C
Assay: NCI In Vivo Anticancer Drug Screen. Data for tumor model B16 Melanoma (intraperitoneal) in B6D2F1 (BDF1) mice
Details: T/C endpoint: median survival time, higher T/C = longer survival
Method in brief: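 In this screen, activity was judged from survival or tumor size in treated versus vehicle-treated tumor-bearing mice, reported as T/C.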

[1] = dose: 200.0 mg/kg/injection, schedule: Q01DX009 (ip), vehicle: Klucel (hydroxypropylcellulose) (HPC)
[2] = dose: 200.0 mg/kg/injection, schedule: Q01DX009 (ip), vehicle: saline with Tween-80
[3] = dose: 50.0 mg/kg/injection, schedule: Q01DX009 (ip), vehicle: saline with Tween-80
[4] = dose: 100.0 mg/kg/injection, schedule: Q01DX009 (ip), vehicle: saline with Tween-80
[5] = dose: 200.0 mg/kg/injection, schedule: Q01DX009 (ip), vehicle: saline
[6] = dose: 400.0 mg/kg/injection, schedule: Q01DX009 (ip), vehicle: Klucel (hydroxypropylcellulose) (HPC)
[7] = dose: 100.0 mg/kg/injection, schedule: Q01DX009 (ip), vehicle: saline

## COC12[C@@H]3N[C@@H]3CN1C1=C(C(=O)C(NCCSSCCNC3=C(C)C(=O)C4=C(C3=O)C(COC(N)=O)[C@]3(OC)C5N[C@@H]5CN43)=C(C)C1=O)[C@@H]2COC(N)=O (some centres undefined)
dose: 0.05 mg/kg/injection, schedule: Q04DX003 (ip), vehicle: other
  T/C: 137 % of control
dose: 0.1 mg/kg/injection, schedule: Q04DX003 (ip), vehicle: other
  T/C: 149 % of control
dose: 9.6 mg/kg/injection, schedule: Q04DX003 (ip), vehicle: other
  survivor count: 10 of 10 on day 10
dose: 12.8 mg/kg/injection, schedule: Q04DX003 (ip), vehicle: other
  survivor count: 7 of 10 on day 10
dose: 24.0 mg/kg/injection, schedule: Q04DX003 (ip), vehicle: saline with Tween-80
  survivor count: 10 of 10
dose: 48.0 mg/kg/injection, schedule: Q04DX003 (ip), vehicle: saline with Tween-80
  survivor count: 10 of 10

## CCCC1OC(=O)C(C)O1 (centres undefined)
[1]
  survivor count: 9 of 9

## CCC(C)C(C(=O)OCCN(C)C)c1ccccc1 (centres undefined)
[2]
  survivor count: 5 of 10

## O=[N+]([O-])c1ccc(/C=N/c2ncc(Br)s2)o1
dose: 25.0 mg/kg/injection, schedule: Q01DX009 (ip), vehicle: saline with Tween-80
  survivor count: 10 of 10
[3]
  survivor count: 10 of 10
[4]
  survivor count: 5 of 10

## COc1cc([C@@H]2c3cc4c(cc3[C@@H](OC3OC5CO[C@@H](c6cccs6)OC5C(O)C3O)[C@H]3COC(=O)[C@H]23)OCO4)cc(OC)c1O (some centres undefined)
dose: 0.25 mg/kg/injection, schedule: Q01DX009 (ip), vehicle: saline
  T/C: 135 % of control
dose: 4.0 mg/kg/injection, schedule: Q01DX009 (ip), vehicle: clinical formulation
  survivor count: 6 of 6
dose: 4.0 mg/kg/injection, schedule: Q01DX009 (ip), vehicle: saline
  survivor count: 6 of 6
dose: 4.0 mg/kg/injection, schedule: Q01DX009 (ip), vehicle: water
  survivor count: 10 of 10

## CCCCCCCCCCCCCCCCCCNC(=O)Oc1ccc(Cl)c(C)c1
dose: 400.0 mg/kg/injection, schedule: Q04DX003 (ip), vehicle: gum acacia
  survivor count: 10 of 10

## CCN(CC)CCN(C)CCN(CC)CC
[5]
  survivor count: 9 of 10

## Nc1nc(=S)c2[nH]cnc2[nH]1
dose: 1.0 mg/kg/injection, schedule: Q01DX009 (ip), vehicle: saline sonified
  T/C: 137 % of control
dose: 4.0 mg/kg/injection, schedule: Q01DX009 (ip), vehicle: saline sonified
  survivor count: 6 of 6
dose: 4.0 mg/kg/injection, schedule: Q01DX009 (ip), vehicle: saline with Tween-80
  survivor count: 6 of 6
dose: 4.0 mg/kg/injection, schedule: Q01DX009 (ip), vehicle: suspension in saline
  survivor count: 10 of 10
dose: 8.0 mg/kg/injection, schedule: Q01DX009 (ip), vehicle: saline with Tween-80
  survivor count: 6 of 6
dose: 16.0 mg/kg/injection, schedule: Q01DX009 (ip), vehicle: saline with Tween-80
  survivor count: 6 of 6

## COc1ccccc1CC(C)N (centres undefined)
dose: 80.0 mg/kg/injection, schedule: Q01DX009 (ip), vehicle: saline with Tween-80
  survivor count: 2 of 6

## CC(=O)Oc1cccc(C)c1
[4]
  survivor count: 10 of 10
dose: 400.0 mg/kg/injection, schedule: Q01DX009 (ip), vehicle: saline with Tween-80
  survivor count: 0 of 10

## Nc1c(Cl)c(Cl)nc(C(=O)O)c1Cl
dose: 25.0 mg/kg/injection, schedule: Q02DX009 (ip), vehicle: other
  survivor count: 10 of 10
dose: 100.0 mg/kg/injection, schedule: Q02DX009 (ip), vehicle: Klucel (hydroxypropylcellulose) (HPC)
  survivor count: 10 of 10
dose: 200.0 mg/kg/injection, schedule: Q02DX009 (ip), vehicle: Klucel (hydroxypropylcellulose) (HPC)
  survivor count: 10 of 10
dose: 200.0 mg/kg/injection, schedule: Q02DX009 (ip), vehicle: other
  survivor count: 9 of 10
dose: 400.0 mg/kg/injection, schedule: Q02DX009 (ip), vehicle: Klucel (hydroxypropylcellulose) (HPC)
  survivor count: 1 of 10
dose: 400.0 mg/kg/injection, schedule: Q02DX009 (ip), vehicle: other
  survivor count: 7 of 10

## CCN(CC)Cc1ncccc1O
[1]
  survivor count: 9 of 10

## CCOC(=O)c1ccc(NC(=O)Nc2nc(C)cs2)cc1
dose: 12.5 mg/kg/injection, schedule: Q01DX009 (ip), vehicle: distilled water + Tween-80
  T/C: 131 % of control
dose: 50.0 mg/kg/injection, schedule: Q01DX009 (ip), vehicle: distilled water + Tween-80
  T/C: 126 % of control
dose: 100.0 mg/kg/injection, schedule: Q01DX009 (ip), vehicle: distilled water + Tween-80
  T/C: 144 % of control

## Fc1cccc(/C=C2/c3cc(Cl)ccc3-c3c(Cl)cc(Cl)cc32)c1
[3]
  survivor count: 6 of 6

## [O-][n+]1c(CN2CCCCC2)nc2cccc3c2c1-c1ccccc1-3
[6]
  T/C: 129 % of control

## COc1cc2c3c(c1)/C(=N\Nc1ccccc1)CCN3CCC2
dose: 0.75 mg/kg/injection, schedule: Q01DX009 (ip), vehicle: DMSO
  survivor count: 10 of 10
dose: 0.78 mg/kg/injection, schedule: Q01DX009 (ip), vehicle: DMSO
  survivor count: 9 of 9
dose: 1.5 mg/kg/injection, schedule: Q01DX009 (ip), vehicle: DMSO
  survivor count: 9 of 9
dose: 1.56 mg/kg/injection, schedule: Q01DX009 (ip), vehicle: DMSO
  survivor count: 10 of 10
dose: 3.0 mg/kg/injection, schedule: Q01DX009 (ip), vehicle: DMSO
  survivor count: 9 of 10, 10 of 10, 9 of 9
dose: 6.0 mg/kg/injection, schedule: Q01DX009 (ip), vehicle: DMSO
  survivor count: 10 of 10
dose: 12.0 mg/kg/injection, schedule: Q01DX009 (ip), vehicle: DMSO
  survivor count: 10 of 10

## COc1cc(C(O)C(Cl)(Cl)Cl)ccc1O (centres undefined)
dose: 400.0 mg/kg/injection, schedule: Q01DX009 (ip), vehicle: other
  survivor count: 7 of 10

## NC(CSC(c1ccccc1)(c1ccccc1)c1ccccc1)C(=O)O (centres undefined)
dose: 25.0 mg/kg/injection, schedule: Q01DX009 (ip), vehicle: saline
  T/C: 125 and 147 % of control
[7]
  survivor count: 6 of 6
[5]
  survivor count: 6 of 6

## COc1ccccc1N1C(=O)CSC1=S
[1]
  survivor count: 6 of 10
[6]
  survivor count: 0 of 10

## O=C(CCCN1CCC(n2c(=O)[nH]c3ccccc32)CC1)c1ccc(F)cc1
dose: 1.56 mg/kg/injection, schedule: Q01DX009 (ip), vehicle: Klucel (hydroxypropylcellulose) (HPC)
  survivor count: 9 of 10
dose: 6.25 mg/kg/injection, schedule: Q01DX009 (ip), vehicle: Klucel (hydroxypropylcellulose) (HPC)
  survivor count: 10 of 10
dose: 12.5 mg/kg/injection, schedule: Q01DX009 (ip), vehicle: Klucel (hydroxypropylcellulose) (HPC)
  survivor count: 10 of 10
dose: 50.0 mg/kg/injection, schedule: Q01DX009 (ip), vehicle: Klucel (hydroxypropylcellulose) (HPC)
  survivor count: 4 of 10 and 10 of 10
dose: 100.0 mg/kg/injection, schedule: Q01DX009 (ip), vehicle: Klucel (hydroxypropylcellulose) (HPC)
  survivor count: 0 of 10 and 2 of 10
[1]
  survivor count: 0 of 10
[6]
  survivor count: 0 of 10

## CCC/C=C/C=C\C(=O)O[C@@H]1[C@@H](C)[C@]2(O)[C@@H]3C=C(C)C(=O)[C@H]3CC(COC(C)=O)=C[C@H]2[C@@H]2C(C)(C)[C@]12OC(C)=O
dose: 12.0 mg/kg/injection, schedule: Q01DX009 (ip), vehicle: saline + alcohol
  survivor count: 4 of 10

## CC(CN1c2ccccc2Sc2cccnc21)N(C)C (centres undefined)
[7]
  survivor count: 0 of 10
[5]
  survivor count: 0 of 10
dose: 400.0 mg/kg/injection, schedule: Q01DX009 (ip), vehicle: saline
  survivor count: 0 of 10

## N=C(N)c1ccc(N=NNc2ccc(C(=N)N)cc2)cc1
[4]
  survivor count: 3 of 10
[2]
  survivor count: 0 of 10

## CCC1CN2C(=N1)c1ccccc1-c1cc(Cl)ccc12 (centres undefined)
dose: 25.0 mg/kg/injection, schedule: Q01DX009 (ip), vehicle: suspension in saline
  T/C: 132 % of control
dose: 80.0 mg/kg/injection, schedule: Q01DX009 (ip), vehicle: saline
  survivor count: 0 of 10
dose: 160.0 mg/kg/injection, schedule: Q01DX009 (ip), vehicle: saline
  survivor count: 0 of 10

## O=C(/C=C/C(=O)Oc1ccc(Cl)cc1Cl)Oc1ccc(Cl)cc1Cl
[1]
  survivor count: 10 of 10
[6]
  survivor count: 10 of 10

Reference: PubChem BioAssay AID192 (DTP/NCI, 2004)
